In article PMC6814788:
No constants are given. Whether binding was seen depends on the method and setting. In cells and extracts the contact can be indirect. Binding calls can cover weak binding; strength is not graded here.

Sequences of proteins named here, by UniProt entry; tags and fusion partners are left off.
UniProt O14980: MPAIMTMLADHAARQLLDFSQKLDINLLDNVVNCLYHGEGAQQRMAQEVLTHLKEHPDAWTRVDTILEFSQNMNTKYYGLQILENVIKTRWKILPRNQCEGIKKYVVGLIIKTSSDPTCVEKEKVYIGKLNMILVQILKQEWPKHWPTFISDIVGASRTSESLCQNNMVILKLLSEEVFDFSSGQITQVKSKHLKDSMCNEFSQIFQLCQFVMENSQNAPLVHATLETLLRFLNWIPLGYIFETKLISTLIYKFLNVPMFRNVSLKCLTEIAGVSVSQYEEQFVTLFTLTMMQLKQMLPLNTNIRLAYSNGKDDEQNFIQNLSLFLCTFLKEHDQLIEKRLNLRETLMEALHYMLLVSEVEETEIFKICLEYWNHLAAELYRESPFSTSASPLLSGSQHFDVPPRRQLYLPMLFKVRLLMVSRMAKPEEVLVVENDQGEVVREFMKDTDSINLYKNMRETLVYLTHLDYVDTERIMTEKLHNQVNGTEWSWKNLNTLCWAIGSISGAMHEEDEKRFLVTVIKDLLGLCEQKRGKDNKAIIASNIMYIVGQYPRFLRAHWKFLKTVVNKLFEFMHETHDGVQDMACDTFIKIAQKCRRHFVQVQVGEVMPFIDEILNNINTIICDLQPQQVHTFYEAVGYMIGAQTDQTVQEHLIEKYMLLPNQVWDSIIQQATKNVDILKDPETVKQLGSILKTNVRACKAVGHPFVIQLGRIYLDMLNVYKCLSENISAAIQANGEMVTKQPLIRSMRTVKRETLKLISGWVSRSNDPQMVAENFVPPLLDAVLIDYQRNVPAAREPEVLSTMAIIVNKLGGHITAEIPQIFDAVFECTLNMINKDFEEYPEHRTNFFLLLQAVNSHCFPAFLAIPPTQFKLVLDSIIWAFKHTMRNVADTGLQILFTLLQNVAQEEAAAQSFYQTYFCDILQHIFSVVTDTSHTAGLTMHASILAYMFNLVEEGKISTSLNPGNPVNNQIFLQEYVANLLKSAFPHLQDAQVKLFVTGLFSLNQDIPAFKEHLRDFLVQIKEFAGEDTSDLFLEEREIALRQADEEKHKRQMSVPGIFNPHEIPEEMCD

Biological target: Thioredoxin-related transmembrane protein 2 (TMX2), endogenous (human (endogenous in HEK293)) (UniProt Q9Y320)
Test: co-IP; HEK293 lysates (50 mM Tris-HCl pH 7.5, 150 mM NaCl, 0.25% NP40) immunoprecipitated with anti-TMX2 antibody (endogenous TMX2), protein A-Sepharose, 4 °C; blots with anti-importin-β or anti-Flag antibody; cells untransfected or expressing Flag-Ran WT, Flag-Ran Q69L, Flag-importin-α, Flag-importin-β or Flag-CRM1

Question: Flag-CRM1 (from UniProt O14980 1-1071) was tested. Which binding did it give?
Answer: binds weakly
